Results as given in publication PMC4482762.
Changes are numbered by the printed parent chain. These are yes or no findings as the source states them, for the method shown. In cells and extracts the contact can be indirect. Binding can be weak; no strength is given. Sequences can lack the tags named with a protein.

Tests used:
Test in all cases: co-IP; GFP-Trap: lysates of Hek293 cells transfected with YFP-R6 forms, 2 mg of supernatant with GFP-Trap_A beads 10 min at 4°C (25 mM Tris-HCl pH 7.5, 150 mM NaCl, 0.5% NP-40); endogenous partners found by Western blotting
[1] = target: T1, YFP-R6 WDNAD (N270A) (human) (UniProt O95685)
T1 sequence: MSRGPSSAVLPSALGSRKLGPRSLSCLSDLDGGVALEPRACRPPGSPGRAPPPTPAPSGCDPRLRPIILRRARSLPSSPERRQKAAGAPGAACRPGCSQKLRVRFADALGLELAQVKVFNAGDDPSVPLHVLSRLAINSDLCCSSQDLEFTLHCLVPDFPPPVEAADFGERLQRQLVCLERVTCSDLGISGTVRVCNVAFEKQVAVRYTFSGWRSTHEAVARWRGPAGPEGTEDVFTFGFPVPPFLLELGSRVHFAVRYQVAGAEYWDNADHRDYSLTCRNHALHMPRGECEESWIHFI

[2] = target: T2, YFP-R6 S74A (human) (UniProt O95685)
T2 sequence: T1 sequence with S74A, A270N

[3] = target: T3, YFP-R6 RARA (V103A-F105A) (human) (UniProt O95685)
T3 sequence: T1 sequence with V103A, F105A, A270N

[4] = target: T4, YFP-R6 wild type (PPP1R3D) (human) (UniProt O95685)
T4 sequence: T1 sequence with A270N

[5] = target: T5, YFP-R6 S25A (human) (UniProt O95685)
T5 sequence: T1 sequence with S25A, A270N

Measured: binding

endogenous glycogen phosphorylase (GP) (human (endogenous in Hek293)) (enzyme)
binds: all assays above

endogenous glycogen synthase (GS) (human (endogenous in Hek293)) (enzyme)
binds: all assays above
